{
  "source": "paper PMC8622533",
  "key": {"[1]": {"molecular_target": "T1, OsABF1-BD (rice (Oryza sativa)) (UniProt Q0JHF1)", "T1 sequence": "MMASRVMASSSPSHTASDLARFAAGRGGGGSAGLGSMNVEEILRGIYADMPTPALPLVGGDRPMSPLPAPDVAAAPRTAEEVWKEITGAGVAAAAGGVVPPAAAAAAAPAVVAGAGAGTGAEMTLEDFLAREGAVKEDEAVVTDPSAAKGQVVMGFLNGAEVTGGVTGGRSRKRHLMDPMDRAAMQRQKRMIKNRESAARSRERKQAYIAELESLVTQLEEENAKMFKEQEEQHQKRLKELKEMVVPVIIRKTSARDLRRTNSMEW", "experiment": "two-hybrid; Clontech system, yeast strain Y2H Gold; OsABF1 in bait vector pGBKT7, OsEMF2b in prey vector pGADT7; growth on SD-Trp/-Leu/-Ade/-His with 3 mM 3-AT"}, "[2]": {"molecular_target": "T2, OsABF1-cYFP (rice (Oryza sativa)) (UniProt Q0JHF1)", "T2 sequence": "T1 sequence", "experiment": "split reporter; BiFC; nYFP-OsEMF2b and OsABF1-cYFP from vector pDOE-BiFC, transiently expressed in tobacco leaf epidermal cells; YFP fluorescence"}, "[3]": {"molecular_target": "T3, GST-OsABF1 (rice (Oryza sativa)) (UniProt Q0JHF1)", "T3 sequence": "T1 sequence", "experiment": "pull-down; GST pull-down in vitro; GST-OsABF1 or GST as bait, purified His-OsEMF2b as prey; detected with anti-His and anti-GST antibodies; both purified"}},
  "note": "Results are given in words; binding and its absence hold for the method and conditions named. A result given as binding can be weak or reduced; the word gives no strength. Where a sequence is shown, tags or fusion partners need not be part of it. For part of these data: In cells and extracts the contact can be indirect.",
  "data": [
    {"substance": "OsEMF2b-AD (rice (Oryza sativa))", "values": [
      {"measurement": "binding", "setting": "[1]", "value": "binds"}
    ]},
    {"substance": "nYFP-OsEMF2b (rice (Oryza sativa))", "values": [
      {"measurement": "binding", "setting": "[2]", "value": "binds"}
    ]},
    {"substance": "His-OsEMF2b (rice (Oryza sativa))", "values": [
      {"measurement": "binding", "setting": "[3]", "value": "binds"}
    ]}
  ]
}
